Record: PubChem BioAssay AID1259254 (NCATS, 2017)

- Test: 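Genome-wide screen for genes that prevent DNA re-replication in cancer cells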 (primary screen)
- Cells: human HCT116 colorectal cancer cells
- Reagent: single siRNA against human genes
- Timing: 3 days
- Measurement: 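Imaged Hoechst DNA stain sorts each cell into a cycle phase by DNA amount; per plate, G2 fraction set to 0% for non-targeting and 100% for GMNN siRNA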
- Scale: G2 robust z-score: higher = more G2 cells, more excess DNA replication
- Active means: 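An siRNA counts as active if its G2 robust z-score lies at least 5 MADs above the screen median; here such calls match roughly 38% of GMNN control or more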
The deposit covers about 59,000 reagents; below is a random part of them. Of all reagents, about 1,550 (2.6%) were called active. 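G2 share is only a proxy for re-replication; each gene was hit by three separate siRNAs, and active genes were retested.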 The numbers tell different reagents against one gene apart. Further read-outs or replicates are left out here. Not given: the amount of reagent.

G2 robust z-score, by target gene and reagent
ADGRL3 (adhesion G protein-coupled receptor L3): #1 1.11 inactive; #2 0.766 inactive; #3 -0.91 inactive
NLRP13 (NLR family pyrin domain containing 13): #1 4.12 inactive; #2 1.32 inactive; #3 -0.295 inactive
TSPAN15 (tetraspanin 15): #1 0.345 inactive; #2 -1.01 inactive; #3 -0.219 inactive
UQCRC2 (ubiquinol-cytochrome c reductase core protein 2): #1 -0.514 inactive; #2 0.409 inactive; #3 -0.221 inactive
ABI3BP (ABI family member 3 binding protein): #1 1.19 inactive; #2 0.1 inactive; #3 -0.191 inactive
LINC00479 (long independently transcribed non-coding RNA 479): #1 -0.941 inactive; #2 -0.613 inactive; #3 -0.619 inactive

Taken from above.
NLRP13 (NLR family pyrin domain containing 13) #1, G2 robust z-score → 4.12
Entry for ABI3BP (ABI family member 3 binding protein) #2 in “G2 robust z-score”: 0.1
Result for NLRP13 (NLR family pyrin domain containing 13) #3 in “G2 robust z-score”: -0.295

Additional records:
G2 robust z-score, by target gene and reagent
ELOVL4 (ELOVL fatty acid elongase 4): #1 1.68 inactive; #2 -0.722 inactive; #3 -0.838 inactive
SCN8A (sodium voltage-gated channel alpha subunit 8): #1 1.81 inactive; #2 -1.12 inactive; #3 0.781 inactive
TBL3 (transducin beta like 3): #1 5.26 active; #2 1.72 inactive; #3 0.201 inactive
POLR2G (RNA polymerase II subunit G): #1 1.07 inactive; #2 5.34 active; #3 5.61 active
MSH4 (mutS homolog 4): #1 0.12 inactive; #2 -0.5 inactive; #3 -0.871 inactive
LGALS7B (galectin 7B): #1 -0.171 inactive; #2 -0.191 inactive; #3 -0.263 inactive
KLHDC8B (kelch domain containing 8B): #1 -0.798 inactive; #2 0.816 inactive; #3 1.02 inactive
H2AC11 (H2A clustered histone 11): #1 7.66 active; #2 0.55 inactive; #3 -0.554 inactive
DRC4 (dynein regulatory complex subunit 4): #1 0.394 inactive; #2 1.71 inactive; #3 5.09 active
MAIP1 (matrix AAA peptidase interacting protein 1): #1 1.19 inactive; #2 0.171 inactive; #3 -0.516 inactive
